These are yes or no findings as the source states them, for the method shown. Tags and fused reporters may be left off the sequences shown.
Legend:
Experiment in all cases: two-hybrid
[1] = biological target: N-terminal truncated OsTPL (OsTPLn) fused with the GAL4 BD (Oryza sativa)
[2] = biological target: N-terminal truncated OsTPR1 (OsTPR1n) fused with the GAL4 BD (Oryza sativa)
[3] = biological target: N-terminal truncated OsTPR2 (OsTPR2n) fused with the GAL4 BD (Oryza sativa)

binding [1]: no binding
binding [2]: no binding
binding [3]: no binding
B1: full-length OsIRO2 fused with the GAL4 AD (protein, UniProt Q0JFZ0 1-247)
chain: MEQLFVDDPAFASSMSSLEADIFSGAGQLPSSPWLDLDLDDDVQDLSMAPTTANAVSSGYGSGGSGSHRKLSHNAYERDRRKQLNELYSSLRALLPDADHTKLSIPTTVSRVLKYIPELQKQVENLERKKKELTTTSTTNCKPGVLGSQLMSEGMAPIVSATCINDMEIMVQVSLLSNVAGSVLPLSKCIKVLENEGLHFISSSTSSGFGNRTFYSIHLQRSEGTINEECPAFCERLEKVVRNKAKL

Source: publication doi:10.1101/2022.02.14.480324
